Reference: PubChem BioAssay AID330 (DTP/NCI, 2004)
The list is a part of this screen's results and no random one: it is rich in T/C values a quarter to a half above the control, in often repeated tests (any T/C) and in doses without a T/C. Other doses and runs of a compound stand elsewhere. T/C: endpoint of the treated group in % of that of the vehicle group. Some doses have a count of surviving animals in place of a T/C: the source holds a T/C of zero for them, seemingly a mark for toxic or unscored doses. Some survivor counts are full or nearly so, which does not show that the dose was tolerated: the source hardly ever lists a survival T/C far under the control, and the zero likely stands for such cases as well. Survivors were counted at the toxicity check, usually on the fifth day, unless a day is given; later deaths do not show. Schedules are NCI's codes, read here as Q, the interval in days (D) or hours (H), X, the number of doses. Some doses were run more than once; the values are given in rising order. For survival time, the PubChem record calls one and a half times the control and up active, and a quarter to a half above the control has no call in these data; cut-offs in other NCI protocols can differ.

Test system: P388 leukemia ip, CD2F1 mice, survival T/C
Assay: NCI In Vivo Anticancer Drug Screen. Data for tumor model P388 Leukemia (intraperitoneal) in CD2F1 (CDF1) mice
Settings: T/C endpoint: median survival time, higher T/C = longer survival
[1] = dose: 12.5 mg/kg/injection, schedule: Q01DX009 (ip), vehicle: Klucel (hydroxypropylcellulose) (HPC)
[2] = dose: 100.0 mg/kg/injection, schedule: Q01DX009 (ip), vehicle: Klucel (hydroxypropylcellulose) (HPC)
[3] = dose: 200.0 mg/kg/injection, schedule: Q01DX009 (ip), vehicle: Klucel (hydroxypropylcellulose) (HPC)
[4] = dose: 50.0 mg/kg/injection, schedule: Q01DX009 (ip), vehicle: Klucel (hydroxypropylcellulose) (HPC)
[5] = dose: 100.0 mg/kg/injection, schedule: Q01DX009 (ip), vehicle: saline
[6] = dose: 200.0 mg/kg/injection, schedule: Q01DX005 (ip), vehicle: saline with Tween-80
[7] = dose: 240.0 mg/kg/injection, schedule: Q01DX005 (ip), vehicle: saline with Tween-80
[8] = dose: 200.0 mg/kg/injection, schedule: Q04DX003 (ip), vehicle: saline

CCOc1cc2cc(CCC#N)c(C)cc2cn1
survivor count (dose: 100.0 mg/kg/injection, schedule: Q01DX009 (ip), vehicle: distilled water + Tween-80): 6 of 6 | survivor count (dose: 200.0 mg/kg/injection, schedule: Q01DX009 (ip), vehicle: distilled water + Tween-80): 5 of 6

CCCCC(=O)NN(Cn1c(=S)sc2ccccc21)Cn1c(=S)sc2ccccc21
T/C (dose: 1.56 mg/kg/injection, schedule: Q01DX009 (ip), vehicle: Klucel (hydroxypropylcellulose) (HPC)): 125 % of control | survivor count [1]: 6 of 6 | survivor count (dose: 25.0 mg/kg/injection, schedule: Q01DX009 (ip), vehicle: Klucel (hydroxypropylcellulose) (HPC)): 6 of 6 | survivor count [2]: 6 of 6 | survivor count [3]: 1 of 6

S=C1SCN(c2ccc(Br)cc2)CN1c1ccc2[nH]c(=S)sc2c1
survivor count [4]: 6 of 6 | survivor count [2]: 6 of 6 | survivor count [3]: 0 of 6

CSc1nc(N)c(I)c(Cl)n1
survivor count (dose: 400.0 mg/kg/injection, schedule: Q04DX003 (ip), vehicle: saline with Tween-80): 0 of 6

CC(=O)N=C1C=C(NC(C)=O)C(=O)c2ccccc21
T/C [4]: 126 % of control | survivor count [4]: 5 of 6 | survivor count [2]: 1 of 6

NC(=O)c1csc(C2OC3COP(=O)(O)OC3C2O)n1 (stereo unspecified)
T/C (dose: 200.0 mg/kg/injection, schedule: Q01DX005 (ip), vehicle: water): 147 % of control

CC1(C)COC(=O)C(C)(C2(C)NC(C)(C)COC2=O)N1 (stereo unspecified)
survivor count (dose: 1600.0 mg/kg/injection, schedule: Q01DX001 (ip), vehicle: saline with Tween-80): 0 of 4 | survivor count (dose: 3200.0 mg/kg/injection, schedule: Q01DX001 (ip), vehicle: saline with Tween-80): 0 of 4 | survivor count (dose: 6400.0 mg/kg/injection, schedule: Q01DX001 (ip), vehicle: saline with Tween-80): 0 of 4

C[CH2][Sn]=[O].c1cc[c]([Ge]([c]2ccccc2)[c]2ccccc2)cc1
T/C [5]: 125 % of control

C1CCC([N-]C2CCCCC2)CC1.C1CCC([N-]C2CCCCC2)CC1.[Cl][Pt+2][Cl]
survivor count (dose: 400.0 mg/kg/injection, schedule: Q01DX001 (sc), vehicle: other): 3 of 6

CC(NNC(=S)N1CCC(c2ccccc2)CC1)c1cc2ccccc2cn1 (stereo unspecified)
survivor count (dose: 50.0 mg/kg/injection, schedule: Q01DX005 (ip), vehicle: saline with Tween-80): 6 of 6 | survivor count (dose: 100.0 mg/kg/injection, schedule: Q01DX005 (ip), vehicle: saline with Tween-80): 3 of 6 | survivor count [6]: 0 of 6

CCN(CC)CCOc1ccc(C)c(C)c1
survivor count [6]: 0 of 6

CC1(C)C2CCC(CN=C(N)CSS(=O)(=O)O)C1C2 (stereo unspecified)
survivor count (dose: 60.0 mg/kg/injection, schedule: Q01DX005 (ip), vehicle: saline with Tween-80): 1 of 6 | survivor count (dose: 120.0 mg/kg/injection, schedule: Q01DX005 (ip), vehicle: saline with Tween-80): 0 of 6 | survivor count [7]: 0 of 6

CCCCCCCNC1CCCc2cc(OC)ccc21 (stereo unspecified)
survivor count [8]: 0 of 6

O=C(Nc1ccc(Cc2ccc(NC(=O)Nc3nccs3)cc2)cc1)Nc1nccs1
survivor count [1]: 6 of 6

C[C@]12C=CC(=O)C=C1CC[C@@H]1[C@@H]2CC[C@@]2(C)[C@H]1CC[C@]2(C)O
survivor count [6]: 5 of 6 | survivor count (dose: 400.0 mg/kg/injection, schedule: Q01DX009 (ip), vehicle: Klucel (hydroxypropylcellulose) (HPC)): 0 of 6

COc1cccc2c1C(=O)c1c(O)c3c(c(O)c1C2=O)CC(O)(/C(C)=N/NC(=O)CCCCCC(=O)N/N=C(\C)C1(O)Cc2c(O)c4c(c(O)c2C(OC2CC(N)C(O)C(C)O2)C1)C(=O)c1c(OC)cccc1C4=O)CC3OC1CC(N)C(O)C(C)O1 (stereo unspecified)
T/C (dose: 0.78 mg/kg/injection, schedule: Q01DX009 (ip), vehicle: water): 135 % of control | survivor count (dose: 25.0 mg/kg/injection, schedule: Q01DX009 (ip), vehicle: water): 3 of 3 and 5 of 5

CNC(=O)O/N=C(\SC)C(=O)N(C)C
survivor count (dose: 3.5 mg/kg/injection, schedule: Q01DX005 (ip), vehicle: saline): 0 of 6 | survivor count (dose: 7.5 mg/kg/injection, schedule: Q01DX005 (ip), vehicle: saline): 0 of 6 | survivor count (dose: 15.0 mg/kg/injection, schedule: Q01DX005 (ip), vehicle: saline): 0 of 6 | survivor count (dose: 30.0 mg/kg/injection, schedule: Q01DX005 (ip), vehicle: saline): 0 of 6 | survivor count (dose: 60.0 mg/kg/injection, schedule: Q01DX005 (ip), vehicle: saline): 0 of 6 | survivor count (dose: 120.0 mg/kg/injection, schedule: Q01DX005 (ip), vehicle: saline): 0 of 6 | survivor count (dose: 240.0 mg/kg/injection, schedule: Q01DX005 (ip), vehicle: saline): 0 of 6

OCCSCc1cnc2ccccn12
survivor count [5]: 2 of 6

Cc1ccc(NCN2C(=O)c3ccccc3C2=O)c(C)n1
survivor count (dose: 240.0 mg/kg/injection, schedule: Q01DX005 (ip), vehicle: Klucel (hydroxypropylcellulose) (HPC)): 0 of 6

CC(=O)O[C@@H]1C[C@@H]2[C@@]3(C)CC[C@@H](OC(=O)CC(=O)O)C(C)(C)[C@@H]3CC[C@@]2(C)[C@]2(C)CCCC([C@]3(C)CC[C@H](C(C)(C)O)O3)[C@@H]12 (stereo partly specified)
survivor count (dose: 50.0 mg/kg/injection, schedule: Q01DX005 (ip), vehicle: Klucel (hydroxypropylcellulose) (HPC)): 5 of 5

CN1C2C=CC(=O)C1C1C(=O)N(c3ccccc3)C(=O)C12 (stereo unspecified)
T/C (dose: 70.0 mg/kg/injection, schedule: Q01DX005 (ip), vehicle: Klucel (hydroxypropylcellulose) (HPC)): 132 % of control | survivor count (dose: 140.0 mg/kg/injection, schedule: Q01DX005 (ip), vehicle: Klucel (hydroxypropylcellulose) (HPC)): 5 of 6

CCNC(=O)N(CC(N)=O)c1ncc([N+](=O)[O-])s1
T/C (dose: 25.0 mg/kg/injection, schedule: Q01DX001 (ip), vehicle: saline): 132 % of control

O=C(Cc1n[nH]c(=S)nc1CC(=O)c1cccnc1)c1cccnc1
survivor count [7]: 0 of 6

COc1cc([N+](=O)[O-])c2nc(Cl)ccc2c1[N+](=O)[O-]
survivor count (dose: 12.5 mg/kg/injection, schedule: Q01DX009 (ip), vehicle: other): 6 of 6 | survivor count (dose: 25.0 mg/kg/injection, schedule: Q01DX009 (ip), vehicle: other): 6 of 6 | survivor count (dose: 100.0 mg/kg/injection, schedule: Q01DX009 (ip), vehicle: other): 6 of 6 | survivor count (dose: 200.0 mg/kg/injection, schedule: Q01DX009 (ip), vehicle: other): 6 of 6

O=c1cccccc1[O][Sn]([O]c1cccccc1=O)([c]1ccccc1)[c]1ccccc1
T/C (dose: 200.0 mg/kg/injection, schedule: Q01DX001 (ip), vehicle: Klucel (hydroxypropylcellulose) (HPC)): 125 % of control

C=C1C(=O)C2CCN1CC2
T/C [6]: 125 % of control | survivor count (dose: 400.0 mg/kg/injection, schedule: Q01DX005 (ip), vehicle: saline with Tween-80): 1 of 6 and 5 of 6

CC1(C)COCN1CN1COCC1(C)C
survivor count (dose: 6.25 mg/kg/injection, schedule: Q04DX003 (ip), vehicle: saline): 5 of 6 | survivor count (dose: 12.5 mg/kg/injection, schedule: Q04DX003 (ip), vehicle: saline): 0 of 6 | survivor count (dose: 25.0 mg/kg/injection, schedule: Q04DX003 (ip), vehicle: saline): 0 of 6 | survivor count (dose: 50.0 mg/kg/injection, schedule: Q04DX003 (ip), vehicle: saline): 0 of 6 | survivor count (dose: 100.0 mg/kg/injection, schedule: Q04DX003 (ip), vehicle: saline): 0 of 6 | survivor count [8]: 0 of 6

[CH3][Sn]([CH3])([CH3])[Cl]
survivor count (dose: 3.12 mg/kg/injection, schedule: Q01DX009 (ip), vehicle: saline): 0 of 6 | survivor count (dose: 6.25 mg/kg/injection, schedule: Q01DX009 (ip), vehicle: saline): 0 of 6 | survivor count (dose: 12.5 mg/kg/injection, schedule: Q01DX009 (ip), vehicle: saline): 0 of 6 | survivor count (dose: 50.0 mg/kg/injection, schedule: Q01DX009 (ip), vehicle: saline): 0 of 6 | survivor count [5]: 0 of 6 | survivor count (dose: 200.0 mg/kg/injection, schedule: Q01DX009 (ip), vehicle: saline): 0 of 6
